From US20220348659A1 (TWIST BIOSCIENCE, published 2022)
Results are given in words; binding and its absence hold for the method and conditions named. Some results given as binding are weak or reduced against the parent protein; the word gives no strength.

Biological target: CD3 on human CD8+ T cells
Assay: flow cytometry on primary CD8 T cells, antibody at 100 nM; bar = MFI APC+ subset; title 'TB252 binding primary CD8T'

binding: binds
B1: CD3-252-22 (VHH)
VHH: EVQLVESGGGLVQPGGSLRLSCAASGNIFTRHIMGWFRQAPGKEREFVAAITNGGSTKYADSVKGRFTISADNSKNTAYLQMNSLKPEDTAVYYCARQDYYDSSGHIRYWGQGTLVTVSS
notes: also called CD3-252-022
